In paper PMC12172420:
No constants are given. Whether binding was seen depends on the method and setting. Binding calls can cover weak binding; strength is not graded here. For some assays here: Binding seen in cells or lysates may run through a third protein. For some assays here: Sequences can lack the tags named with a protein.

Columns and labels:
[1] = target: T1, Flag-MIDN (midnolin) (UniProt Q504T8); assay: co-IP; HEK-293T cells co-transfected for 24 h, lysed in NP40 Cell Lysis Buffer; anti-Flag-antibody-bound Dynabeads Protein G, 30 min at room temperature; washed four times with 0.02% PBST; immunoblot
T1 sequence: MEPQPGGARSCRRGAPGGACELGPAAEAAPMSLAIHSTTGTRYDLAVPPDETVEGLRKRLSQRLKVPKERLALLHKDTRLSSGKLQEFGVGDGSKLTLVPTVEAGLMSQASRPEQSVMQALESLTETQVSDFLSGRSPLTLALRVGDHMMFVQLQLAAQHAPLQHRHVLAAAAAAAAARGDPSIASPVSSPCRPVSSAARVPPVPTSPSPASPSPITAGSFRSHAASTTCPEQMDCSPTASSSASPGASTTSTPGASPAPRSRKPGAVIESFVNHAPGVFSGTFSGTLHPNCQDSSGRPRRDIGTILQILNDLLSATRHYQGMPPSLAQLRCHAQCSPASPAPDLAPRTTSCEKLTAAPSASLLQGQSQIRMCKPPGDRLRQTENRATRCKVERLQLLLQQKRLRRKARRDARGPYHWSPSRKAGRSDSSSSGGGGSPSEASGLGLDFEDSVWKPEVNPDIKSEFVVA

[2] = target: Flag-Catch (Catch domain of midnolin); assay: as above
[3] = target: GST-Catch (Catch domain of midnolin in pCold GST); assay: pull-down; GST pulldown: recombinant bait and prey proteins from E. coli BL21 (DE3), purified, incubated with glutathione agarose resin (GST Protein Interaction Pull-Down Kit); eluted with glutathione; immunoblot; both purified
[4] = target: GST-E (GST-fused PEDV E) (porcine epidemic diarrhea virus (PEDV)); assay: as above

HA-E (PEDV envelope protein) (porcine epidemic diarrhea virus (PEDV))
binding [1]: binds

B1: MYC-MARCH8 (E3 ubiquitin ligase MARCH8) (enzyme, UniProt Q5T0T0 1-291)
chain: MSMPLHQISAIPSQDAISARVYRSKTKEKEREEQNEKTLGHFMSHSSNISKAGSPPSASAPAPVSSFSRTSITPSSQDICRICHCEGDDESPLITPCHCTGSLHFVHQACLQQWIKSSDTRCCELCKYEFIMETKLKPLRKWEKLQMTSSERRKIMCSVTFHVIAITCVVWSLYVLIDRTAEEIKQGQATGILEWPFWTKLVVVAIGFTGGLLFMYVQCKVYVQLWKRLKAYNRVIYVQNCPETSKKNIFEKSPLTEPNFENKHGYGICHSDTNSSCCTEPEDTGAEIIHV
binding [2]: binds

B2: MARCH8 (full length, recombinant from pCold TF) (enzyme, UniProt Q5T0T0 1-291)
chain: MSMPLHQISAIPSQDAISARVYRSKTKEKEREEQNEKTLGHFMSHSSNISKAGSPPSASAPAPVSSFSRTSITPSSQDICRICHCEGDDESPLITPCHCTGSLHFVHQACLQQWIKSSDTRCCELCKYEFIMETKLKPLRKWEKLQMTSSERRKIMCSVTFHVIAITCVVWSLYVLIDRTAEEIKQGQATGILEWPFWTKLVVVAIGFTGGLLFMYVQCKVYVQLWKRLKAYNRVIYVQNCPETSKKNIFEKSPLTEPNFENKHGYGICHSDTNSSCCTEPEDTGAEIIHV
binding [3]: binds

B3: MIDN (full-length midnolin, recombinant from E. coli) (protein, UniProt Q504T8 1-468)
chain: MEPQPGGARSCRRGAPGGACELGPAAEAAPMSLAIHSTTGTRYDLAVPPDETVEGLRKRLSQRLKVPKERLALLHKDTRLSSGKLQEFGVGDGSKLTLVPTVEAGLMSQASRPEQSVMQALESLTETQVSDFLSGRSPLTLALRVGDHMMFVQLQLAAQHAPLQHRHVLAAAAAAAAARGDPSIASPVSSPCRPVSSAARVPPVPTSPSPASPSPITAGSFRSHAASTTCPEQMDCSPTASSSASPGASTTSTPGASPAPRSRKPGAVIESFVNHAPGVFSGTFSGTLHPNCQDSSGRPRRDIGTILQILNDLLSATRHYQGMPPSLAQLRCHAQCSPASPAPDLAPRTTSCEKLTAAPSASLLQGQSQIRMCKPPGDRLRQTENRATRCKVERLQLLLQQKRLRRKARRDARGPYHWSPSRKAGRSDSSSSGGGGSPSEASGLGLDFEDSVWKPEVNPDIKSEFVVA
binding [4]: binds

B4: CALCOCO2/NDP52 (calcium binding and coiled-coil domain 2) (protein, UniProt Q13137 1-446)
chain: MEETIKDPPTSAVLLDHCHFSQVIFNSVEKFYIPGGDVTCHYTFTQHFIPRRKDWIGIFRVGWKTTREYYTFMWVTLPIDLNNKSAKQQEVQFKAYYLPKDDEYYQFCYVDEDGVVRGASIPFQFRPENEEDILVVTTQGEVEEIEQHNKELCKENQELKDSCISLQKQNSDMQAELQKKQEELETLQSINKKLELKVKEQKDYWETELLQLKEQNQKMSSENEKMGIRVDQLQAQLSTQEKEMEKLVQGDQDKTEQLEQLKKENDHLFLSLTEQRKDQKKLEQTVEQMKQNETTAMKKQQELMDENFDLSKRLSENEIICNALQRQKERLEGENDLLKRENSRLLSYMGLDFNSLPYQVPTSDEGGARQNPGLAYGNPYSGIQESSSPSPLSIKKCPICKADDICDHTLEQQQMQPLCFNCPICDKIFPATEKQIFEDHVFCHSL
binding [2]: no binding
